Laboratory results published in PubChem BioAssay AID540276 (National Center for Advancing Translational Sciences (NCATS), 2011).
Out of some 300,000 compounds screened, about 5,400 (1.8%) were called active. The shares of active, inactive and inconclusive entries below differ from those in the screen. Calls follow the shape of the full dose curve; tested in HEK293 cells. A potency beside an inconclusive call is a rough fit, not a confirmed value.

Test: qHTS for inhibitors of binding or entry into cells for Marburg Virus
Settings: Marburg virus pseudotyped entry inhibition, cell reporter; activity change, negative = inhibition: at 37.8 µM (top of the series) unless noted
% is scaled to controls: 0 for no effect and ±100 for the full control effect; potency is read from the fitted curve at half-maximal effect.

Structure (SMILES) | activity change, negative = inhibition | Potency
Cc1cc2ccccc2n1CCNC(=O)c1ccccc1F | inactive: -18.4% [at 46.1 µM] | 
O=C(C1CCN(S(=O)(=O)c2ccc(Br)s2)CC1)N1CCN(c2ccc(F)cc2)CC1 |  | inconclusive: 5.62 µM [activator, single point]
COc1ccccc1C(=O)Nc1cccc(OCc2cc(=O)n3c4c(sc3n2)CCCC4)c1 | inactive: -2.4% [at 46.1 µM] | 
O=C(Cc1cccc(C(F)(F)F)c1)Nc1ccc(S(=O)(=O)N2CCCC2)cc1 |  | inconclusive: 35.5 µM [inhibitor, single point]
COc1ccc(-c2nnc(OCc3ccccc3)c3ccccc23)cc1 |  | inconclusive: 11.2 µM [inhibitor, partial curve, poor fit]
CCOC(=O)CC(=O)CSc1nc2c(cc1C#N)CCCCCC2 |  | inconclusive: 14.6 µM [activator, single point]
CCOC(=O)c1ccc(NC(=S)Nc2ccccn2)cc1 |  | inconclusive: 4.47 µM [activator, full curve, poor fit]
Cc1ccc(SCC(=O)NCc2ccncc2)cc1 | inactive: -3.64% | 
CN(C)CCn1c2ccccc2c2nc3ccc([N+](=O)[O-])cc3cc21 |  | inconclusive: 7.08 µM [inhibitor, partial curve, poor fit]
O=C(c1cc(-c2ccccc2)nc2ccccc12)N1CCOCC1 | inactive: 10.5% | 
CCCCc1c(C)nn(-c2nnc3c4ccccc4n(CC)c3n2)c1C |  | inconclusive: 32.6 µM [inhibitor, partial curve, poor fit]
O=C(NCCCN1CCN(CCCNC(=O)c2cccc(Cl)c2)CC1)c1cccc(Cl)c1 |  | inconclusive: 18.4 µM [inhibitor, single point]
c1ccc(-c2csc(Nc3nc(N4CCOCC4)nc(N4CCOCC4)n3)n2)cc1 | inactive: -8.73% | 
CCc1nc(N)nc(N)c1-c1ccc(Cl)cc1 |  | inconclusive: 5.17 µM [inhibitor, partial curve, poor fit]
O=C(NN=C1CCCC1)c1n[nH]c2c1CCCC2 | inactive: -36.6% | 
COC(=O)Cc1c(C)c2ccc(OCC(=O)N3CCCC3)c(C)c2oc1=O | inactive: -21% | 
FC(F)(F)c1ccccc1CN1CCN(Cc2ccccc2)CC1 |  | inconclusive: 0.0052 µM [inhibitor, full curve, poor fit]
O=c1[nH]c(/C=C/c2ccccc2OC(F)F)nc2c1cnn2-c1ccccc1 |  | inconclusive: 8.91 µM [inhibitor, partial curve, poor fit]
Fc1ccc(-c2csc3ncnc(Cl)c23)cc1 | inactive: 0.303% | 
CC(=O)CSc1nc2cc3c(cc2cc1C#N)OCCO3 |  | active: 1.41 µM
O=C1CC(N2CCC(C(=O)N3CCCCC3)CC2)C(=O)N1 (stereo unspecified) |  | inconclusive: 6.31 µM [activator, single point]
Cc1ccc(NC(=O)/C(CN(C)C)=N\O)cc1 |  | inactive
CCOC(=O)c1ccc(NC(=O)c2nn(C)cc2Br)cc1 | inactive: -5.86% | 
COc1ccc(-c2c(C)c3cc(O)ccc3oc2=O)cc1 | inactive: 20.4% [at 46.1 µM] | 

Complete entries from above:
`COc1ccc(-c2nnc(OCc3ccccc3)c3ccccc23)cc1` is listed as Potency: inconclusive: 11.2 µM [inhibitor, partial curve, poor fit]
`Cc1cc2ccccc2n1CCNC(=O)c1ccccc1F` is listed as activity change, negative = inhibition: inactive: -18.4% [at 46.1 µM]

Further compounds follow.

Structure (SMILES) | activity change, negative = inhibition | Potency
O=C1c2ccccc2C2=Nc3ccccc3SC(c3cccc(F)c3)C12 (stereo unspecified) |  | inconclusive: 29.1 µM [inhibitor, single point]
Fc1ccc(NC(=S)NCc2ccccc2Cl)cc1 | inactive: 37.5% | 
O=C1N/C(=N/NC(=O)c2cccc3ccccc23)S/C1=C\c1ccccc1OCc1ccccc1 |  | inconclusive: 13 µM [inhibitor, partial curve, poor fit]
COc1ccc(C)cc1Nc1nc(C)nc2c1oc1ccccc12 |  | inconclusive: 12.6 µM [inhibitor, partial curve, poor fit]
CC(=O)c1cc2c(cc1NS(=O)(=O)c1ccc(C)cc1)OCCO2 |  | inconclusive: 2.51 µM [inhibitor, full curve, poor fit]
Cc1cnc(NC(=O)c2cc(S(=O)(=O)N(C)C)ccc2N2CCCC2)s1 |  | inconclusive: 12.6 µM [inhibitor, partial curve, poor fit]
COc1cccc(OCCNc2cc(Cl)ccc2[N+](=O)[O-])c1 | inactive: 2.42% | 
Cc1cccc(N(CC(=O)Nc2ccccc2-c2ccccc2)S(=O)(=O)c2ccccc2)c1C |  | inconclusive: 35.5 µM [inhibitor, single point]
O=C(NCc1ccccn1)C1CCC(=O)N1C1CCCCC1 (stereo unspecified) | inactive: 2.88% | 
CC1(C)Cc2nc3sc(C(=O)NCCO)c(N)c3cc2CO1 |  | inconclusive: 23.1 µM [activator, single point]
COc1ccc(-c2nnc(-c3ccc4ccccc4c3)o2)cc1 |  | inconclusive: 7.08 µM [activator, full curve, poor fit]
O=S(=O)(Nc1ccc(-c2ccc(N3CCOCC3)nn2)cc1)c1ccc(Cl)c(Cl)c1 |  | inconclusive: 25.1 µM [inhibitor, single point]
Cc1cccc(-n2ncc3c(NCc4ccccn4)ncnc32)c1 |  | inconclusive: 5.62 µM [activator, single point]
COc1ccc(S(=O)(=O)Nc2ccc(N(C)C(C)=O)cc2)cc1 |  | inconclusive: 0.92 µM [inhibitor, full curve, poor fit]
O=C(CSc1nccn1Cc1ccc(F)cc1)NC1CCCC1 |  | inactive
Cc1cc(C)c2c(n1)sc1c(=O)n(-c3ccccc3)c(=O)[nH]c12 |  | inconclusive: 4.47 µM [activator, full curve, poor fit]
CC(=O)CSc1ccc(C(=O)O)cn1 | inactive: -10.4% | 
N#CCc1nc(-c2cc3ccccc3oc2=O)cs1 |  | inconclusive: 35.5 µM [activator, single point]
CC(/C=N/n1c(-c2ccc(C)cc2)n[nH]c1=S)=C\c1ccco1 |  | inconclusive: 6.31 µM [inhibitor, single point]
CC(NC(=S)Nc1ccc(OC(F)F)c(Cl)c1)C(C)(C)C (stereo unspecified) |  | inconclusive: 25.1 µM [inhibitor, single point]
COc1cc(O)ccc1-c1nc2ccc(Br)cn2c1Nc1ccccc1C |  | inconclusive: 11.2 µM [inhibitor, partial curve, poor fit]
Cc1cc(Cl)ccc1NC(=O)C1CCN(S(C)(=O)=O)CC1 |  | inconclusive: 1.41 µM [inhibitor, partial curve, poor fit]
COc1cccc(CNCCc2c[nH]c3ccccc23)c1OCc1ccccc1F |  | active: 7.3 µM
CCOc1ccc(NC(c2ccc(Cl)cc2)c2nnc(-c3cccc(F)c3)o2)cc1 (stereo unspecified) |  | inconclusive: 10 µM [activator, partial curve, poor fit]

Structure (SMILES) | activity change, negative = inhibition | Potency
Cc1ccc(CN(C(=O)COc2cccc(Cl)c2)c2ccccn2)o1 |  | inconclusive: 35.5 µM [inhibitor, single point]
COc1ccc(OC)c(Cc2nnc(CCC(=O)NC3CCCCCCC3)o2)c1 |  | inconclusive: 3.98 µM [activator, single point]
CCSc1ncc(Cl)c(C(=O)Nc2ccc(S(=O)(=O)N3CCCCC3CC)cc2)n1 (stereo unspecified) | inactive: -25.1% [at 46.1 µM] | 
CCOC(=O)C1=NNC2C(=O)N(C3CCCCC3)C(=O)C12 (stereo unspecified) |  | inconclusive: 3.98 µM [activator, single point]
CCN1C(=O)C(O)(C2COC(C)(C)CC2=O)c2ccccc21 (stereo unspecified) | inactive: 19.4% | 
COc1ccc(C(=O)c2cc([N+](=O)[O-])ccc2N2CCCC2)cc1 |  | inconclusive: 3.98 µM [inhibitor, full curve, poor fit]
O=C(Nc1cc(Cl)ccc1O)c1snnc1-c1ccccc1 |  | inconclusive: 23.1 µM [inhibitor, single point]
COc1cc(Cl)ccc1OCc1cc(C(=O)N2C[C@]3(C)C[C@H]2CC(C)(C)C3)no1 |  | inconclusive: 35.5 µM [inhibitor, single point]
COc1ccc(CCNC(=O)C(=O)NCC2CCCN2S(=O)(=O)c2ccccc2)cc1OC (stereo unspecified) |  | inconclusive: 7.94 µM [inhibitor, partial curve, poor fit]
CCOC(=O)N1CC(C)N(CC(O)CN2CCOCC2)CC1C (stereo unspecified) | inactive: 4.34% [at 46.1 µM] | 
O=C(COC(=O)Cc1ccsc1)Nc1ccccc1Cl |  | inconclusive: 14.1 µM [activator, partial curve, poor fit]
CC(Oc1ccc(Br)cc1)C(=O)Nc1ccc(S(=O)(=O)N(C)C2CCN(C)CC2)cc1 (stereo unspecified) |  | inconclusive: 35.5 µM [inhibitor, single point]
Cc1nc(NC(=O)c2ccc(Cl)cc2)sc1Cc1ccc2c(c1)OCO2 |  | inconclusive: 3.16 µM [inhibitor, full curve, poor fit]
COc1ccc(CCNC(=O)C2CCN(Cc3nc(-c4cccc(Cl)c4)oc3C)CC2)cc1OC |  | inconclusive: 15.8 µM [inhibitor, single point]
CC1(C)SC(=S)N(/N=C/c2ccc(O)cc2)C1N(O)C(=O)Nc1ccc([N+](=O)[O-])cc1 (stereo unspecified) |  | inconclusive: 11.2 µM [inhibitor, single point]
Oc1ccccc1CNCCCNCc1ccccc1O |  | inconclusive: 9.2 µM [inhibitor, partial curve, poor fit]
CCCNC(=O)c1cc2ccccc2c(=O)o1 | inactive: 27.5% | 
Cc1nnnn1/C(=C\c1ccccc1)C(=O)OCC(=O)NC1CCCCC1 |  | active: 11.2 µM
COc1ccc(NC(=O)C2(S(=O)(=O)c3ccc(C)cc3)CC2)c(OC)c1 |  | inconclusive: 35.5 µM [inhibitor, single point]
Cc1ccc(C(CC(=O)N2CCOCC2)c2ccco2)cc1 (stereo unspecified) | inactive: -4.66% | 
c1ccc(-n2cc(CN3CCCC3)c(-c3ccc4c(c3)OCO4)n2)cc1 |  | inconclusive: 10 µM [inhibitor, partial curve, poor fit]
Cc1cc2c(s1)c1cnn(Cc3ccccc3F)c(=O)c1n2C |  | inactive
CC(=O)Nc1ccc(NC(=O)CSCc2ccccc2Cl)cc1 | inactive: 15.4% [at 46.1 µM] | 

Part of the list above in order of molar mass, smallest number first.
Structure (SMILES) | activity change, negative = inhibition | Potency
CC(=O)CSc1ccc(C(=O)O)cn1 | inactive: -10.4% | 
Cc1cccc(-n2ncc3c(NCc4ccccn4)ncnc32)c1 |  | inconclusive: 5.62 µM [activator, single point]
CCOc1ccc(NC(c2ccc(Cl)cc2)c2nnc(-c3cccc(F)c3)o2)cc1 (stereo unspecified) |  | inconclusive: 10 µM [activator, partial curve, poor fit]
